Here are results for 42 sequences from publication PMC7819943, “Rice protein-binding microarrays: a tool to detect cis-acting elements near promoter regions in rice”.

The list shows a part of the results.

This experiment deals with T1, OsSMF1 (Oryza sativa, UniProt Q6ZLB0 1-436).
T1 sequence: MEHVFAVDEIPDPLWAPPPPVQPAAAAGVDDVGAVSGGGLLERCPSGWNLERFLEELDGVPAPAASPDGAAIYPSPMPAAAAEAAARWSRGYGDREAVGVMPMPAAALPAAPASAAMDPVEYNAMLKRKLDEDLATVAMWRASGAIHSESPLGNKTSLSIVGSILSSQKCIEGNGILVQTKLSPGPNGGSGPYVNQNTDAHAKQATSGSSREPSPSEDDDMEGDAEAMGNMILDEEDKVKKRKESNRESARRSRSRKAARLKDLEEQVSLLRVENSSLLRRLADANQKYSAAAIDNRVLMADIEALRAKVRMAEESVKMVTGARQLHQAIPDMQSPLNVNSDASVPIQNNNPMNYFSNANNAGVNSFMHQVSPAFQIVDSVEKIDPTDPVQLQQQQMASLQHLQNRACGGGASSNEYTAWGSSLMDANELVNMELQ
Briefly: protein-binding microarray (RPBM); PBS, 2% BSA, 51.3 ng/ul salmon testes DNA, 50 uM zinc acetate, 200 nM TF, 25 C, 1 h; high values mean tight binding. Particulars: protein: recombinant; tags: N-terminal polyhistidine and DsRed monomer fusion (pET32a); chain copies: 2; label: CyDye5-dUTP incorporated in the synthesized complementary strand; 3' TTTTT single-stranded linker to array surface; dsDNA, one strand shown. A digest of the protocol: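 Using Ni–NTA, transcription factors fused N-terminally to polyhistidine and DsRed were purified after expression in E. coli BL21-CodonPlus. These were incubated at 200 nM with a blocked, double-stranded custom Agilent array for 1 h at 25 °C in a buffer containing 50 µM zinc acetate, and the array was washed. The binding signal is per-feature fluorescence intensity (arbitrary units) on an Axon 4000B scanner.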
As to “CGTGCCGCCTCACCTCCTCCCTCCCACGCACCGCCTCACCCGGAGTCACCTAGTGCAG”, the binding signal was 3330 fluorescence intensity (a.u.).

As to “TTGACGAGCCTTTTGGCCAACTCGAGAGTGACGTCAGCGCCGGAGTCACCTAGTGCAG”, the binding signal is 33200 fluorescence intensity (a.u.).

In the case of “GCCAGCCCATTGATGAGTCAGCAAAGGATCAGATCGTGAGCGGAGTCACCTAGTGCAG”, the binding signal was 14500 fluorescence intensity (a.u.).

Turning to “TTATCACTCTTGTCATAAATTAAGCTGCAAGAATCAGATGCGGAGTCACCTAGTGCAG”, the binding signal is 3340 fluorescence intensity (a.u.).

Turning to “CCACCTCCACCGCACGGAAACCCTCGCCCGGCGTGGATTCCGGAGTCACCTAGTGCAG”, the binding signal was 3250 fluorescence intensity (a.u.).

On to “GTTAGAAAACGATATATATATAAGTAGATATCACAACATGCGGAGTCACCTAGTGCAG”, for which the binding signal was 3890 fluorescence intensity (a.u.).

As to “TCTAAATATAAGTGACTAGGCATTGGACAGCCCCGTCGTTCGGAGTCACCTAGTGCAG”, the binding signal is 11000 fluorescence intensity (a.u.).

Consider “TCCAGATGTTGGCTAATTCTAAGGTTTGACACGTCCTCTGCGGAGTCACCTAGTGCAG”, for which the binding signal is 10200 fluorescence intensity (a.u.).

On to “CCACCACTGTGGCGCCTGACACAGCTCACACCTTTGACGACGGAGTCACCTAGTGCAG”, for which the binding signal was 36700 fluorescence intensity (a.u.).

Take “TTTTCATTTGCTTATGCTGTTGATGACGAGGACGCAACGTCGGAGTCACCTAGTGCAG”: the binding signal was 6910 fluorescence intensity (a.u.).

Turning to “TCCAGCGCCTTCGTCTTCTTCGACCTCCTCCTCCGAAGGCCGGAGTCACCTAGTGCAG”, the binding signal is 19300 fluorescence intensity (a.u.).

As to “GGCCGGAGTGGATGGGGATTCGAGCGTGTGTGTGAGAGAGCGGAGTCACCTAGTGCAG”, the binding signal was 3740 fluorescence intensity (a.u.).

With “ACTCTACCAACCACATCAGAGTTAGTTCATCTCCTCCTTGCGGAGTCACCTAGTGCAG”, the binding signal was 3260 fluorescence intensity (a.u.).

On to “CCACCTCTCTCTCTCTCTCTCCCACGCCACGCCACGCCACCGGAGTCACCTAGTGCAG”, for which the binding signal is 3700 fluorescence intensity (a.u.).

As for “TCATGGCAGTTGAACAAGAACAGTCATCTGGGCAACATCCCGGAGTCACCTAGTGCAG”, the binding signal was 3260 fluorescence intensity (a.u.).

On to “ATAGAAAGTCCGGTACATGTCTCGCTCCGGTTGGTATACGCGGAGTCACCTAGTGCAG”, for which the binding signal was 30100 fluorescence intensity (a.u.).

With “AATCATAAAGTTGGTGTTTTCCTCGGTGTCGATAGTGCTCCGGAGTCACCTAGTGCAG”, the binding signal was 20700 fluorescence intensity (a.u.).

Consider “TTCTTTGTGTTTGTGTGACTTGTACGTGTCAGCCAGCCACCGGAGTCACCTAGTGCAG”, for which the binding signal was 5900 fluorescence intensity (a.u.).

With “ACGCCACCGTCGTCGGCTACTACGCTCCACGCAGGGATGCCGGAGTCACCTAGTGCAG”, the binding signal is 3670 fluorescence intensity (a.u.).

For the sequence “GCCATCAGGGGAATGTACAGTGACGTCCTCGCGCTCGCGGCGGAGTCACCTAGTGCAG”, the binding signal is 4300 fluorescence intensity (a.u.).

Consider “CTGGACATGATCGGCACGATGACGCTAATCCACGCTGAGCCGGAGTCACCTAGTGCAG”, for which the binding signal is 3680 fluorescence intensity (a.u.).

For “GGGTGGCCGGGGAAGGAGATGGTGACGTCGGGCAGCACTCCGGAGTCACCTAGTGCAG”, the binding signal was 3930 fluorescence intensity (a.u.).

In the case of “GGTGGTCGGGGCTCTGACGCGGCGGGGCGGCGGAGGTGGTCGGAGTCACCTAGTGCAG”, the binding signal was 5430 fluorescence intensity (a.u.).

For the sequence “GAAACGATGGTTTGAGTACTGACTTGGCAATGCTGGTCATCGGAGTCACCTAGTGCAG”, the binding signal was 6280 fluorescence intensity (a.u.).

On to “GCCGGTCGCCGTCGCCGGCGCCGCCGCCACATCTGCTCTCCGGAGTCACCTAGTGCAG”, for which the binding signal was 3950 fluorescence intensity (a.u.).

Take “TAAATATCAGATCAAAACACACTCATCCTACTAAAAGCCTCGGAGTCACCTAGTGCAG”: the binding signal was 4630 fluorescence intensity (a.u.).

Consider “CGTGAGCGGGTGGTGGTGGTGATGGCGTTCGCGGTGGCGACGGAGTCACCTAGTGCAG”, for which the binding signal is 3520 fluorescence intensity (a.u.).

Take “CACCGCGGTCTCCATCGTCTCCGGCGATGATGGCGGCGGCCGGAGTCACCTAGTGCAG”: the binding signal is 15600 fluorescence intensity (a.u.).

Turning to “TGGCCTGCCCCTCTCCAGCTCCTTCTCAGCGACGTGTGGCCGGAGTCACCTAGTGCAG”, the binding signal was 3590 fluorescence intensity (a.u.).

Turning to “ATAATTCACGAACTGCTTCAGAGTCAGCAGCACGGATTTTCGGAGTCACCTAGTGCAG”, the binding signal is 3230 fluorescence intensity (a.u.).

As for “TTAATAGATGACGCCGTTAATCTTTAATATCACGTTTGACCGGAGTCACCTAGTGCAG”, the binding signal is 3730 fluorescence intensity (a.u.).

For the sequence “ACCAACAAGGTCGTCGCCGACGACGCCGACGCCGACGCCGCGGAGTCACCTAGTGCAG”, the binding signal was 27600 fluorescence intensity (a.u.).

In the case of “AGACCCTTTACCAATGCAATCCTGACGTGCTTCACCTCACCGGAGTCACCTAGTGCAG”, the binding signal is 4790 fluorescence intensity (a.u.).

With “TTCTATTTTCGCATGTGGCATTTGTGGCTGCTTGCTAGACCGGAGTCACCTAGTGCAG”, the binding signal is 3690 fluorescence intensity (a.u.).

“CGCCGCCTCACCAGCGCCACCTCCACCTCCACCTACGTCTCGGAGTCACCTAGTGCAG”: the binding signal was 3270 fluorescence intensity (a.u.).

On to “ACAGAAAGTAAGAAAATTGGGCCCACATGTCATCCTGTCGCGGAGTCACCTAGTGCAG”, for which the binding signal was 3510 fluorescence intensity (a.u.).

As to “CCGTACGAATTAGGATGCCACGTGGCATCCCTCTCCTCTGCGGAGTCACCTAGTGCAG”, the binding signal is 27800 fluorescence intensity (a.u.).

Take “AGAGAGCTACGTGCCGACATTTGGAGAAAGCGTGACGGGGCGGAGTCACCTAGTGCAG”: the binding signal is 5530 fluorescence intensity (a.u.).

On to “AAGACACACGACTTAATACCGACATGGAAAGCTCAGCTGCCGGAGTCACCTAGTGCAG”, for which the binding signal is 3460 fluorescence intensity (a.u.).

For “GCGCGCGTGCTGGCCTGCTGACGTGGTAACGGCACAAACGCGGAGTCACCTAGTGCAG”, the binding signal is 14000 fluorescence intensity (a.u.).

For the sequence “AAACGGCAGGCTGCCACGTCAGAGGCGTACGTGTGACGCTCGGAGTCACCTAGTGCAG”, the binding signal was 18100 fluorescence intensity (a.u.).

Regarding “TACATTCCCGTGTTTGTCTGCTCCGGCTCCACCCGAACTCCGGAGTCACCTAGTGCAG”, the binding signal was 3690 fluorescence intensity (a.u.).
